# Measured values as given in PubChem BioAssay (Tox21).
# Protein sequences, listed by entry. Tags and fused reporters are not part of them.
# UniProt P14416, whole entry, looked up: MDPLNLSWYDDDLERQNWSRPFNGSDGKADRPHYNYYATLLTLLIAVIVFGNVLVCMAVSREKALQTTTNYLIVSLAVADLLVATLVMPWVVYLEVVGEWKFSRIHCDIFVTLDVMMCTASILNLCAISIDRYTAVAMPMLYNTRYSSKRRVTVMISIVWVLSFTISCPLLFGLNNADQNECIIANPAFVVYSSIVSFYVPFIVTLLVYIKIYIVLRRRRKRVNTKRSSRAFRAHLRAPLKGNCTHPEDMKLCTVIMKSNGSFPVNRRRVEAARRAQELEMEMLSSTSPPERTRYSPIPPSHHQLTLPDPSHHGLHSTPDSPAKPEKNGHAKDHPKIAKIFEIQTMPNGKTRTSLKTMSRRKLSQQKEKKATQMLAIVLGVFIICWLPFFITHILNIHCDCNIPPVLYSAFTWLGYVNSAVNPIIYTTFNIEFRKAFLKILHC
# Where “and” joins values, the source holds several entries; their conditions need not be identical. Equal entries are not always repeated. Inconclusive results, whose numbers are uncertain, are shown with a selection of clear calls. A potency beside an inconclusive call is a rough fit, not a confirmed value. Calls of active or inactive are those of the source. Unless noted, calls follow the shape of the full dose curve.
# Tests used:
# [1] = cAMP Responsive Elements (CRE) small molecule antagonists, cell-based qHTS assay (AID 1963591; active = well fitted inhibition curve with a large enough effect in the signal ratio in the repeat runs, not every such curve was filed as active; inconclusive = weak or mixed curves, or effect the other way; the % refers to the signal ratio); conditions: CRE-bla HEK293T, beta-lactamase FRET ratio; activity change, negative = inhibition: at 92.4 µM (top of the series) unless noted
# How it was run: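 Inhibition of NKH477-driven (0.25 uM final) CRE-beta-lactamase signal in HEK293T cells, 3 h compound exposure at 37 °C, detected by FRET substrate fluorescence.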
# [2] = target: Beta-2 adrenergic receptor (Homo sapiens) (UniProt P07550); assay: Adrenergic beta2 receptor (ADRB2) small molecule antagonists, cell-based qHTS assay (AID 1963592); conditions: CHO-ADRB2 cells, isoproterenol-stimulated cAMP HTRF ratio, 0.5 h; activity change, negative = inhibition: at 92.4 µM (top of the series) unless noted; also: nearly all actives have a fitted effect of over 50% in size
# How it was run: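 Cells (CHO, stable ADRB2 overexpression) incubated 18-20hr at 37C; compounds added from DMSO; agonist mix (1nM isoproterenol, 100uM IBMX, 25uM Ro-20-1724) added; 0.5hr RT; d2-cAMP and anti-cAMP-cryptate added; 1hr RT; 665/615 nm read.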
# [3] = target: Beta-2 adrenergic receptor (Homo sapiens) (UniProt P07550); assay: Adrenergic beta2 receptor (ADRB2) small molecule agonists, cell-based qHTS assay (AID 1963593); conditions: CHO-ADRB2 cells, cAMP HTRF, 30 min;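 as to activation: CHO cells stably overexpressing human ADRB2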
# How it was run: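 CHO cells stably over-expressing ADRB2 were plated overnight at 37C, then dosed with compounds plus a stimulation mix containing 100uM IBMX and 25uM Ro-20-1724 for 0.5hr at room temperature. cAMP was measured by HTRF competition, 1hr.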
# [4] = cAMP Responsive Elements (CRE) small molecule agonists, cell-based qHTS assay (AID 1963590); conditions: CRE-bla HEK293T, beta-lactamase FRET ratio, 3 h; activation: at 92.4 µM (top of the series) unless noted
# How it was run: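 Cell line: CRE-bla HEK 293T; medium DMEM/10% dialyzed FBS/0.1 mM NEAA/1 mM pyruvate/25 mM HEPES; 3 h compound exposure; beta-lactamase FRET readout after 2 h substrate loading at RT.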
# [5] = target: D(2) dopamine receptor (Homo sapiens) (UniProt P14416); assay: Dopamine D2 receptor (DRD2) small molecule agonists, cell-based qHTS assay (AID 1963594); conditions: HEK293-DRD2 cAMP HTRF, agonist mode, 30 min; activation: at 92.4 µM (top of the series) unless noted; also: nearly all actives have a fitted effect of over 35% in size
# How it was run: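 HEK293 cells stably expressing human DRD2, pre-treated with PDE inhibitor Ro20-1724 (0.1 mM final) and compound 10 min at room temperature, then stimulated with NKH477 (200nM […]) for 30 min. cAMP read by HTRF (665/620 nm).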
# [6] = target: D(2) dopamine receptor (Homo sapiens) (UniProt P14416); assay: Dopamine D2 receptor (DRD2) small molecule antagonists, cell-based qHTS assay (AID 1963595; active = well fitted inhibition curve with a large enough effect in the signal ratio in the repeat runs, with a control signal flat; inconclusive = weak or mixed curves, or effect the other way; the % refers to the signal ratio); conditions: HEK293-DRD2 cAMP HTRF antagonist mode; activity change, negative = inhibition: at 92.4 µM (top of the series) unless noted
# How it was run: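 HTRF cAMP read-out at 665 and 620 nm emission (340 nm excitation). Antagonist mode: compounds were tested against 12 nM quinpirole in DRD2-HEK293 cells, with 200 nM NKH477 raising cAMP and 0.1 mM Ro20-1724 blocking its breakdown.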
# [7] = activation: at 92.4 µM (top of the series) unless noted
# % is scaled to controls: 0 for no effect and ±100 for the full control effect; potency is read from the fitted curve at half-maximal effect.
smiles,measurement,setting,value
C=C(C)CCl,Potency,[1],"inconclusive: 0.32 µM [inhibitor, single point]"
same,Potency,[2],inactive
same,Potency,[3]; [7],"inconclusive: 0.148 µM [inhibitor, full curve, poor fit]"
same,activation,[3]; [7],inconclusive: 22.2% [at 8.39 µM]
O=NN1CCCCCCC1,Potency,[1],inactive
CCC(CC)Nc1c([N+](=O)[O-])cc(C)c(C)c1[N+](=O)[O-],Potency,[4],inactive
same,Potency,[3]; [7],inactive
same,activation,[5],inconclusive: -27.6%
same,"activity change, negative = inhibition",[6],inconclusive: -28.5%
CN(C)C1CSSSC1,Potency,[1],"inconclusive: 61.1 µM [activator, single point]"
CCCCCCCCSC(=O)Oc1cc(Cl)nnc1-c1ccccc1,Potency,[1],inactive
O=C(N/N=C/c1ccc([N+](=O)[O-])o1)c1cc([N+](=O)[O-])cc([N+](=O)[O-])c1O,Potency,[4],"inconclusive: 23.7 µM [rising, partial curve, poor fit]"
same,Potency,[5],inactive
same,Potency,[6],inactive
Cc1c([N+](=O)[O-])cc2c(c1[N+](=O)[O-])C(C)(C)CC2(C)C,"activity change, negative = inhibition",[1],inconclusive: -20.7%
O=C(O)c1ccccc1O,"activity change, negative = inhibition",[1],inconclusive: 18.5%
same,Potency,[2],inactive
same,Potency,[3]; [7],"inconclusive: 599 nM [inhibitor, full curve, poor fit] and inconclusive: 69.8 µM [inhibitor, single point] and inconclusive: 306 nM [inhibitor, partial curve]"
same,activation,[3]; at 42.5 µM (top of the series),inconclusive: 2.15%
same,activation,[3]; at 92.4 µM (top of the series),inconclusive: 2.44%
CCOP(=O)(OCC)OP(=O)(OCC)OCC,Potency,[4],inactive
same,activation,[5],inconclusive: -20.4%
N#CC(Br)Br,Potency,[1],"inconclusive: 14.3 µM [inhibitor, single point]"
same,activation,[3]; [7],inconclusive: 46.3%
CC[C@@H](CO)NC(=O)[C@@H]1C=C2c3cccc4c3c(cn4C)C[C@H]2N(C)C1,Potency,[1],inactive
same,Potency,[2],inconclusive: 23.7 µM
same,Potency,[3]; [7],"inconclusive: 23.7 µM [falling, partial curve]"
same,Potency,[5],inconclusive: 29.8 µM
same,Potency,[6],"inconclusive: 29.8 µM [falling, partial curve]"
CC(O)(CS(=O)(=O)c1ccc(F)cc1)C(=O)Nc1ccc(C#N)c(C(F)(F)F)c1 (configuration not stated),Potency,[4],"inconclusive: 20.1 µM [rising, partial curve]"
same,Potency,[3]; [7],"inconclusive: 35.7 µM [inhibitor, partial curve, poor fit]"
same,"activity change, negative = inhibition",[6],inconclusive: -0.886% [at 42.5 µM]
CC1(C)COP(Oc2ccccc2)OC1,"activity change, negative = inhibition",[1],inconclusive: 0.272%
same,Potency,[2],inactive
same,Potency,[3]; [7],"inconclusive: 2.73 µM [inhibitor, single point]"
OCCCl,Potency,[4],inactive
same,activation,[5],inconclusive: 3.03%

# A stretch from further up, as a working copy:
smiles,measurement,setting,value
C=C(C)CCl,activation,[3]; [7],inconclusive: 22.2% [at 8.39 µM]
O=NN1CCCCCCC1,Potency,[1],inactive
